Source: patent US5256559A, “Methods and compositions for inhibiting platelet aggregation” (Biogen, Inc., priority 1991, dated 1993)
Not every detail of the peptide structures is certain; ends, links or a residue may be inferred. Numbered stars: 1 amine (or outer) side, 2 acyl side, 3 side chain; on linkers, the order of the positions; unused ones are H or OH. Square brackets hold non-standard residues; d marks the D form. Peptide text beside a SMILES is read from it. X1 = O=C([C@H](Cc1ccc(O)c(S(=O)(=O)O)c1)N[*:1])[*:2]

Test system: human platelets
Test: thrombin-induced platelet aggregation in platelet-rich plasma (turbidimetric)
Assay type: cell-based
Details: compared with Tyr63-O-sulfate-hirudin53-64

CC[C@H](C)[C@H](NC(=O)[C@H](CCC(=O)O)NC(=O)[C@H](CCC(=O)O)NC(=O)[C@H](Cc1ccccc1)NC(=O)[C@H](CC(=O)O)NC(=O)CNC(=O)[C@@H](N)CC(N)=O)C(=O)N1CCC[C@H]1C(=O)N[C@@H](CCC(=O)O)C(=O)N[C@@H](CCC(=O)O)C(=O)N[C@@H](Cc1ccc(O)c(S(=O)(=O)O)c1)C(=O)N[C@@H](CC(C)C)C(=O)O [3-Sulfo-Tyr63-hirudin53-64, 3-Sulfo-Tyr63 hirudin53-64] (H-NGDFEEIPEE[X1]L-OH)
platelet inhibitory activity: parallels that of Tyr63 -O-sulfate-hirudin53-64
